From PubChem BioAssay AID624297 (National Center for Advancing Translational Sciences (NCATS), 2012)
Screen size: about 340,000 compounds; about 6,200 (1.8%) were called active. This list was built around the results that the source calls inconclusive (neither active nor inactive); the mix of calls is not that of the screen. Calls follow the shape of the dose curve; as a rule, active = well fitted activation curve with a large enough effect; inconclusive = small, poorly fitted or top-dose-only effect; inactive = no such curve, though single readings can be large or run the other way. Potencies of inconclusive entries are doubtful fits and often do not repeat.
Potency is read from the fitted curve at half-maximal effect.

Test: A quantitative high throughput screen for small molecules that induce DNA re-replication in SW480 colon adenocarcinoma cells. Also: nearly all actives have a fitted effect of over 55% in size. As to re-replication activation: % of control where 0% means no effect.
Settings: Hoechst DNA content imaging, 48 h; re-replication activation: at 46.1 µM (top of the series) unless noted
In short: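 Compounds, transferred as 23 nL by pin tool, were incubated with cells for 48 hr; DNA content per nucleus was then quantified by Hoechst staining and fluorescence plate imaging.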
In the case of `CC(=O)Nc1cccc(C(=O)OCC(=O)NC2CCCCCCC2)c1`, the Potency is reported as inconclusive: 32.6 µM [activator, partial curve, poor fit]. With `O=C(O)c1nccnc1C(=O)Nc1ccc(Cl)cn1` the Potency was inconclusive: 2.59 µM [activator, partial curve, poor fit]. In the case of `Cc1ccc(/C=C/C(=O)c2ccccc(=O)c2O)c(C)c1`, the Potency is reported as inconclusive: 13 µM [activator, single point]. For `COc1ccc(OC)c(N(CC(=O)NCCc2ccc(OC)c(OC)c2)S(=O)(=O)c2ccccc2)c1`, the “re-replication activation” value was inactive: 0.553%. For `CCCNC(=O)c1ccc(-c2nc3ccccc3s2)s1`, the Potency was inconclusive: 4.11 µM [activator, partial curve, poor fit]. With `Cc1ccn(C(=O)c2ccc(NC(=O)C3CC3)cc2)n1` the “re-replication activation” value was inactive: -14.2%. For `CN(C)CCCNC(=O)c1cc2sc3ccccc3c2s1`, the Potency was inconclusive: 18.4 µM [activator, single point]. For `O=S(=O)(CCc1nc2ccccc2[nH]1)c1ccc(Cl)cc1`, the Potency was inconclusive: 29.1 µM [activator, single point]. In the case of `CCCCCc1ccc(OCCCC[n+]2cccc(C)c2)c(CCCCC)c1`, the Potency is reported as inconclusive: 29.1 µM [activator, single point]. With `NS(=O)(=O)c1ccc(CCNC(=O)C2CCN(S(=O)(=O)c3cnc[nH]3)CC2)cc1` the Potency was inconclusive: 23.1 µM [activator, single point]. In the case of `CCOC(=O)C1=CN(Cc2ccco2)S(=O)(=O)NC1CC` (configuration not stated), the “re-replication activation” value is reported as inactive: -6.91%. In the case of `O=C(c1cccc(C(F)(F)F)c1)N1CCc2c([nH]c3ccccc23)C1C(F)(F)F` (configuration not stated), the Potency is reported as inconclusive: 29.1 µM [activator, single point]. With `CC(=O)c1ccc(NC(=O)CCCN2C(=O)/C(=C/C(C)=C/c3ccccc3)SC2=S)cc1` the “re-replication activation” value was inactive: 3.45%. With `COc1ccc(C(=O)NCc2c(C)nn(Cc3ccccc3)c2C)cc1S(=O)(=O)N1CCOCC1` the Potency was inconclusive: 29.1 µM [activator, single point]. For `COc1cc2c(cc1OC)CN(C(=O)c1cc(C3CC3)nn1-c1ccccc1)CC2`, the Potency was inconclusive: 2.06 µM [activator, single point]. In the case of `CC(=O)C1=C(O)C(=O)N(c2ccc(Br)cn2)C1c1cccc([N+](=O)[O-])c1` (configuration not stated), the Potency is reported as inconclusive: 0.146 µM [activator, full curve, poor fit]. For `CCOC(=O)C1=C(C)N(c2ccc(C)cc2)C(=O)/C1=C\c1ccc(O)c(OC)c1`, the Potency was inconclusive: 29.1 µM [activator, single point]. In the case of `CN(C)C=Nc1ccc2nc3c(cc2c1)[nH]c1ccccc13`, the Potency is reported as inconclusive: 29.1 µM [activator, single point]. In the case of `CC(C(=O)O)C(=O)O`, the Potency is reported as inconclusive: 0.631 µM [activator, single point]. In the case of `COc1ccc(N(C(=O)c2snc(C(N)=O)c2N)C(C(=O)NCC2CCCO2)c2ccc(C)o2)cc1OC` (configuration not stated), the Potency is reported as inconclusive: 0.891 µM [activator, full curve, poor fit]. With `Cc1cccc(NC(=S)NCC23C=CC(O2)C2C(=O)N(c4ccc(Cl)cc4)C(=O)C23)c1` (configuration not stated) the Potency was inconclusive: 25.9 µM [activator, single point]. For `OCC(CO)(CO)N=Cc1cc(Br)ccc1O`, the “re-replication activation” value was inactive: 2.23%. For `N=C1C(c2nc(-c3ccc(Cl)cc3)cs2)=C(O)CN1CCCN1CCOCC1`, the Potency was inconclusive: 18.4 µM [activator, single point]. With `O=C(Oc1c(Cl)cc(Cl)c2cccnc12)c1cccc([N+](=O)[O-])c1` the Potency was inconclusive: 20.6 µM [activator, single point]. With `CCOc1cccc(/C=N/NC(=O)c2ccc3c(c2)OCCO3)c1O` the Potency was inconclusive: 0.651 µM [activator, full curve, poor fit]. In the case of `CCn1ccnc1CN1CCCCC1C(=O)Nc1ccc(Oc2cccnc2)cc1` (configuration not stated), the Potency is reported as inconclusive: 25.9 µM [activator, single point]. For `CCOC(=O)/C(=N\Nc1ccccc1Cl)N1CCN(C)CC1`, the “re-replication activation” value was inactive: 3.32%. With `CCCCOc1ccc(CN(C)c2ncnc(N)n2)cc1` the Potency was inconclusive: 20.6 µM [activator, single point]. For `N#CCSc1n[nH]c2nc3c(c(=O)n12)C1(CCCCC1)Cc1ccccc1-3`, the Potency was inconclusive: 18.4 µM [activator, partial curve, poor fit]. In the case of `Cc1ccc(NC(=O)CSC2=C(C#N)C(c3ccc4c(c3)OCO4)C3=C(CCCC3=O)N2)c(C)c1` (configuration not stated), the Potency is reported as inconclusive: 18.4 µM [activator, partial curve, poor fit]. For `Cc1c(Cl)cccc1NC(=O)c1ccco1`, the Potency was inconclusive: 6.51 µM [activator, single point]. In the case of `Cc1ccc(C(=O)N2CCN(c3ccc(NC(=S)NC(=O)c4cccs4)cc3)CC2)cc1`, the Potency is reported as active: 10.3 µM. With `O=C(COC(=O)c1ccc(Br)o1)NCc1ccc(Cl)cc1` the “re-replication activation” value was inactive: 1.71%. For `C=C[C@H]1[C@H](OC2OC(CO)C(O)C(O)C2O)OC=C(C(=O)OC)[C@H]1C[C@H]1CC(=O)C[C@H](CC(=O)CCc2ccc(O)cc2)O1` (some centres not stated), the Potency was inconclusive: 0.116 µM [activator, full curve, poor fit]. In the case of `O=C(N/N=C/c1sc(N2CCOCC2)nc1-c1ccccc1)c1ccccc1O`, the Potency is reported as inconclusive: 32.6 µM [activator, partial curve, poor fit]. For `Cc1nn(C2CCS(=O)(=O)C2)c(C)c1CN(C)C(=O)c1ccc(Cl)cc1` (configuration not stated), the “re-replication activation” value was inactive: 17%. With `O=C(NC(=S)Nc1cccc(Cl)c1N1CCCCC1)c1ccc2c(c1)OCCO2` the Potency was inconclusive: 29.1 µM [activator, single point]. In the case of `Cc1cc(C)c(NC(=O)CSc2ccc(-c3cccnc3)nn2)c(C)c1`, the Potency is reported as inconclusive: 1.16 µM [activator, single point]. For `COC(=O)c1ccc2ccccc2n1`, the Potency was inconclusive: 14.6 µM [activator, partial curve, poor fit]. In the case of `COc1ccccc1NC(=S)N(CCc1nc2cc(C)c(C)cc2[nH]1)Cc1cccnc1`, the “re-replication activation” value is reported as inactive: 5.43%. For `CC(C)(C)OC(=O)N1CCC(NC(=O)c2nc[nH]c2C(=O)N2CCN(C(=O)OC(C)(C)C)CC2)CC1`, the Potency was inconclusive: 29.1 µM [activator, single point]. In the case of `CC(C)N(Cc1cn[nH]c1-c1ccc(-c2ccccc2)cc1)Cc1nccn1C`, the Potency is reported as inconclusive: 29.1 µM [activator, single point]. For `COc1ccc(NC(=O)c2c(OC)cccc2OC)c(OC)c1`, the Potency was inconclusive: 25.9 µM [activator, single point]. In the case of `Cc1cc2c(cc1S(=O)(=O)N(C)c1ccccc1)NC(=O)CO2`, the Potency is reported as inconclusive: 29.1 µM [activator, single point]. For `O=C1/C(=C\c2ccc(Cl)c(Cl)c2)CN(C(=O)CCN2CCOCC2)C/C1=C/c1ccc(Cl)c(Cl)c1`, the Potency was inconclusive: 14.6 µM [activator, partial curve, poor fit]. In the case of `O=C(c1ccc2nccnc2c1)N1CCCC(Nc2ccc(F)c(F)c2)C1` (configuration not stated), the Potency is reported as inconclusive: 29.1 µM [activator, single point]. In the case of `CCOC(=O)c1nn(-c2ccc(F)cc2)c(-c2ccccc2)c1C(=O)c1ccccc1`, the Potency is reported as inconclusive: 25.9 µM [activator, partial curve, poor fit]. With `Cc1ccc2oc(-c3ccc(NC(=O)c4ccncc4)cc3O)nc2c1` the “re-replication activation” value was inactive: 1.93%. For `C[n+]1ccc(/C=C/c2c[nH]c3ccccc23)cc1`, the Potency was inconclusive: 8.2 µM [activator, partial curve]. With `C/C(=N\Nc1ccc(S(N)(=O)=O)cc1[N+](=O)[O-])c1ccc2c(c1)OCO2` the Potency was inconclusive: 32.6 µM [activator, partial curve, poor fit]. In the case of `Cn1c(/C=N/c2nc3ccccc3[nH]2)nc2ccccc21`, the Potency is reported as inconclusive: 20.6 µM [activator, single point]. In the case of `COC(=O)[C@@]12CCCCN1[C@H](c1ccc(-c3ccc(OC)cc3)c(OC)c1)[C@@H]1C(=O)N(C)C(=O)[C@@H]12`, the Potency is reported as inconclusive: 0.517 µM [activator, full curve, poor fit]. With `CC[C@]1(c2ccccc2OC)ON(c2ccccc2C(F)(F)F)C1=O` the Potency was inconclusive: 18.4 µM [activator, single point]. For `Cc1cccc(C(=O)Nc2ccc(C(=O)/C=C/c3ccncc3)cc2)c1`, the Potency was inconclusive: 29.1 µM [activator, single point]. For `CCC(=O)OC1(C)C(=O)C=C2C=C(CCCC(=O)OC)OC=C2C1=O` (configuration not stated), the Potency was inconclusive: 29.1 µM [activator, single point]. For `CC(=O)Nc1ccc(-c2cc(-c3ccc(NC(C)=O)cc3)nc(-c3ccccc3)n2)cc1`, the “re-replication activation” value was inactive: -2.74%. For `OCC1(Cc2ccc(Cl)cc2)CCN(Cc2ccc(F)c(F)c2)CC1`, the Potency was inconclusive: 16.4 µM [activator, single point]. For `O=C1c2ccc3c4c(ccc(c24)C(=O)N1c1cccc(O)c1)C(=O)N(c1cccc(O)c1)C3=O`, the Potency was active: 2.59 µM. With `Cc1ccc2nc(NC(=O)c3ccc(S(=O)(=O)N4CCCc5ccccc54)cc3)sc2c1` the Potency was inconclusive: 32.6 µM [activator, partial curve, poor fit]. In the case of `COCCN(Cc1ccccc1)C(=O)C1CCN(C(=O)Nc2ccccc2)CC1`, the “re-replication activation” value is reported as inactive: -9.24%. For `Cc1cc(C)c2c(n1)sc1c(=O)n(Cc3ccc(F)cc3)cnc12`, the Potency was inconclusive: 29.1 µM [activator, single point]. With `O=C(O)C1Sc2[nH]c(=O)sc2C2c3cc(Br)ccc3OC(=O)C12` (configuration not stated) the Potency was inconclusive: 11.6 µM [activator, partial curve, poor fit].
